{"source": "PubChem BioAssay AID540276", "about": "(National Center for Advancing Translational Sciences (NCATS), 2011)", "note": "About 5,400 (1.8%) of roughly 300,000 compounds were called active. The shares of active, inactive and inconclusive entries below differ from those in the screen. The call rests on the fitted dose curve; tested in HEK293 cells. Where the call is inconclusive, the potency comes from a doubtful curve fit. Potency means the concentration at half of the fitted maximal effect.", "data": [{"assay": "qHTS for inhibitors of binding or entry into cells for Marburg Virus", "settings": "Marburg virus pseudotyped entry inhibition, cell reporter; series mostly up to 37.8 µM", "values": [{"smiles": "N#C/C(=C\\c1c(F)cccc1Cl)c1nn(-c2ccccc2)c(-n2cccc2)c1C#N", "Potency": "inconclusive: 10 µM [inhibitor, partial curve, poor fit]"}, {"smiles": "CCCCN1CCc2c1nc1ccc(Br)cc1c2N", "Potency": "inconclusive: 13 µM [inhibitor, partial curve]"}, {"smiles": "CCOc1ccccc1C1C(C(=O)Nc2ccccc2OC)=C(C)Nc2nc3ccccc3n21", "note": "(centres undefined)", "Potency": "inconclusive: 1.12 µM [inhibitor, partial curve, poor fit]"}, {"smiles": "CCOC(=O)c1cc(-c2ccccc2)n(CCC(=O)N2CCN(c3ccc(OC)cc3)CC2)c1C", "Potency": "inconclusive: 20 µM [inhibitor, single point]"}, {"smiles": "COc1ccc(N2C(=O)NC3CC2(C)Oc2ccc(Br)cc23)cc1OC", "note": "(centres undefined)", "Potency": "inconclusive: 35.5 µM [inhibitor, single point]"}, {"smiles": "COc1ccc(C)cc1NC(=O)CN1CCN(c2ccccn2)CC1", "Potency": "inconclusive: 1.12 µM [activator, partial curve, poor fit]"}, {"smiles": "CCC(C)c1ccccc1NC(=O)CN(C)CC(=O)Nc1ccccc1SC", "note": "(centres undefined)", "Potency": "inconclusive: 4.11 µM [inhibitor, single point]"}, {"smiles": "COc1ccc(-c2cc(N3CCCC3)n3ncnc3n2)cc1", "Potency": "inactive"}, {"smiles": "CCOc1ccc(NC(=O)Cc2csc(COc3cccc(C)c3)n2)cc1", "Potency": "inactive"}, {"smiles": "O=C(NCc1ccncc1)Nc1cccc(Cl)c1", "Potency": "inactive"}, {"smiles": "CCCN1C(=O)C(NC(=O)c2ccccc2OC)(C(F)(F)F)C(C(=O)OC)=C1C", "note": "(centres undefined)", "Potency": "inconclusive: 1 µM [inhibitor, full curve, poor fit]"}, {"smiles": "CN(CCOc1ccc(Cl)cc1)C(=O)c1ccc(S(=O)(=O)N2CCOCC2)cc1", "Potency": "inconclusive: 20 µM [inhibitor, single point]"}, {"smiles": "Cc1cccc(NC(=O)COc2ccc3c(c2)CCC3)n1", "Potency": "inactive"}, {"smiles": "CC(C)=CC(=O)Nc1nc2ccc([N+](=O)[O-])cc2s1", "Potency": "inconclusive: 35.5 µM [inhibitor, partial curve, poor fit]"}, {"smiles": "COc1ccc(NC(=O)C2CCCN(c3ncccn3)C2)cc1", "note": "(centres undefined)", "Potency": "inconclusive: 0.562 µM [activator, partial curve, poor fit]"}, {"smiles": "COc1ccc(OC)c(NC(=O)C(=O)NCCC2=CCCCC2)c1", "Potency": "inconclusive: 15.8 µM [inhibitor, single point]"}, {"smiles": "CCCCCn1c(N)c(C(=O)NCc2cccs2)c2nc3ccccc3nc21", "Potency": "inconclusive: 0.366 µM [activator, partial curve]"}, {"smiles": "COc1ccc(OC)c(C2/C(=C(\\O)c3ccc(OC)c(Cl)c3)C(=O)C(=O)N2CCN(C)C)c1", "note": "(centres undefined)", "Potency": "inconclusive: 0.794 µM [activator, full curve, poor fit]"}, {"smiles": "CC1=CC(C)(C)N(C(=O)c2ccccc2)c2ccccc21", "Potency": "inactive"}, {"smiles": "COc1ccc(-c2cc(C(F)(F)F)n3nc(C(=O)NCc4ccco4)cc3n2)cc1OC", "Potency": "inconclusive: 35.5 µM [inhibitor, single point]"}, {"smiles": "Cc1ccccc1C(=O)Nc1ccc(Br)cn1", "Potency": "inconclusive: 16.4 µM [inhibitor, single point]"}, {"smiles": "O=C(Nc1ccc(F)cc1)N1CCCN(c2ccc(C(F)(F)F)cn2)CC1", "Potency": "inconclusive: 7.08 µM [inhibitor, full curve, poor fit]"}, {"smiles": "COc1ccc(-c2cc(C(=O)NCc3ccc(Cl)cc3)no2)cc1OC", "Potency": "inactive"}, {"smiles": "COc1ccc(/C=C/CN2CCCC(C(=O)c3ccc(OC)c(F)c3)C2)cc1", "note": "(centres undefined)", "Potency": "active: 10 µM"}, {"smiles": "Cc1ccc(OC(C)C(=O)N2CCc3ccccc32)cc1", "note": "(centres undefined)", "Potency": "inconclusive: 3.16 µM [activator, single point]"}, {"smiles": "O=C(Nc1cc2c3c(c1)C1CCCC1CN3CC1CCCC21)c1ccccc1", "note": "(centres undefined)", "Potency": "inactive"}, {"smiles": "O=C(Cn1c(=S)[nH]c2ccccc2c1=O)N1CCc2ccccc2C1", "Potency": "inconclusive: 5.62 µM [activator, single point]"}, {"smiles": "CCOC(=O)c1nnc2c(-c3ccc(OC)cc3)c(C)nn2c1N", "Potency": "inactive"}, {"smiles": "CCc1ccccc1NC(=O)CCN1C(=O)C2C3CCC(C3)C2C1=O", "note": "(centres undefined)", "Potency": "inactive"}, {"smiles": "COc1ccccc1NC(=O)n1ncc2c(C)cccc21", "Potency": "inconclusive: 15.8 µM [inhibitor, single point]"}, {"smiles": "COC(=O)c1ccc2c(=O)n(-c3ccccc3)c(=S)[nH]c2c1", "Potency": "inconclusive: 35.5 µM [inhibitor, single point]"}, {"smiles": "CCN(CC)S(=O)(=O)c1cc(C(=O)Nc2cccnc2)ccc1Cl", "Potency": "inactive"}, {"smiles": "Cc1ccc(N2Cc3ccccc3C2=S)cc1", "Potency": "inconclusive: 0.562 µM [activator, full curve, poor fit]"}, {"smiles": "COc1ccc(NC(=O)CCN2C(=O)C3C4C=CC(C4)C3C2=O)cc1", "note": "(centres undefined)", "Potency": "inconclusive: 3.55 µM [inhibitor, single point]"}, {"smiles": "CN(C)CCCNS(=O)(=O)c1ccc(Oc2ncc(C(F)(F)F)cc2Cl)cc1", "Potency": "inconclusive: 20.6 µM [inhibitor, single point]"}, {"smiles": "COc1cc(/C=N\\Nc2nncn2N)ccc1OC(C)=O", "Potency": "inconclusive: 3.16 µM [inhibitor, partial curve, poor fit]"}, {"smiles": "O=C(COc1ccc(Br)cc1Cl)c1ccc[nH]1", "Potency": "inconclusive: 10 µM [activator, partial curve, poor fit]"}, {"smiles": "O=C(COC(=O)/C=C/c1cccs1)NC1CC1", "Potency": "inconclusive: 1.26 µM [inhibitor, partial curve, poor fit]"}, {"smiles": "CC(=O)Nc1ccc(C=NN=C2c3ccccc3-c3ccccc32)cc1", "Potency": "inconclusive: 14.1 µM [inhibitor, single point]"}, {"smiles": "COc1cccc(NC(=O)c2cc([N+](=O)[O-])ccc2NCc2cccnc2)c1", "Potency": "inconclusive: 35.5 µM [inhibitor, single point]"}, {"smiles": "CC1CCN(C(=O)C2Cc3ccccc3CN2S(=O)(=O)c2ccc(F)cc2)CC1", "note": "(centres undefined)", "Potency": "inconclusive: 17.8 µM [inhibitor, single point]"}, {"smiles": "O=C(Nc1ccccc1F)c1ccncc1", "Potency": "inactive"}, {"smiles": "O=C(Nc1cccc(C(F)(F)F)c1)Oc1ccc(Cl)c2cccnc12", "Potency": "inconclusive: 35.5 µM [inhibitor, partial curve, poor fit]"}, {"smiles": "C=CCNC(=S)NNC(=O)COc1ccc2cc(Br)ccc2c1", "Potency": "inactive"}, {"smiles": "O=C(C(Cc1ccccc1)N1C(=O)c2ccccc2C1=O)N1CCc2ccccc21", "note": "(centres undefined)", "Potency": "inconclusive: 6.31 µM [inhibitor, partial curve]"}, {"smiles": "Cc1cccc(-n2cc(-c3ccccc3)[nH]c2=S)c1", "Potency": "inconclusive: 14.1 µM [inhibitor, single point]"}, {"smiles": "Cc1cc(Cl)ccc1OCC(=O)Nc1ccccc1C(=O)N1CCOCC1", "Potency": "inconclusive: 0.1 µM [inhibitor, full curve, poor fit]"}, {"smiles": "COc1ccc(CCNC(=O)CCc2ccc(S(=O)(=O)NCC(C)C)cc2)cc1", "Potency": "inconclusive: 35.5 µM [inhibitor, single point]"}, {"smiles": "CCCC(=O)NCCc1cc(OC)c(OC)cc1Br", "Potency": "inconclusive: 35.5 µM [activator, partial curve, poor fit]"}, {"smiles": "c1ccc(Oc2cccc(CN3CCOCC3)c2)cc1", "Potency": "inactive"}, {"smiles": "COc1ccc(-c2noc(CN(Cc3nccn3C)C(C)C)n2)cc1", "Potency": "inconclusive: 35.5 µM [activator, partial curve, poor fit]"}, {"smiles": "C/[N+]([O-])=C1\\Cc2ccccc2C1=O", "Potency": "inconclusive: 35.5 µM [inhibitor, single point]"}, {"smiles": "COC(=O)c1scc(C)c1NC(=O)CSc1ccc(Cl)cc1", "Potency": "inconclusive: 1.26 µM [activator, single point]"}, {"smiles": "CN(C)c1ccc(C(=O)OCC(=O)N2CCCC2)cc1", "Potency": "inconclusive: 1 µM [activator, full curve, poor fit]"}, {"smiles": "O=c1c2ccccc2nc(COc2ccccc2)n1/N=C/c1cc([N+](=O)[O-])ccc1O", "Potency": "inconclusive: 7.08 µM [inhibitor, partial curve, poor fit]"}, {"smiles": "COc1cccc(N(CC(=O)Nc2cccc(C(C)=O)c2)S(C)(=O)=O)c1", "Potency": "inactive"}, {"smiles": "CN(Cc1ccccc1)C(=O)CCSc1nc(-c2ccc3c(c2)OCO3)cc(C(F)(F)F)n1", "Potency": "inconclusive: 25.1 µM [inhibitor, single point]"}, {"smiles": "CCC(=O)Nc1ccc(C(=O)Nc2ccc3c(c2)C(=O)N(CC2CCCO2)C3=O)cc1", "note": "(centres undefined)", "Potency": "inconclusive: 22.4 µM [activator, single point]"}, {"smiles": "Cc1ccc(N(C)S(=O)(=O)c2cccc(C(=O)OCC(=O)c3c(N)n(C)c(=O)n(C)c3=O)c2)cc1", "Potency": "inconclusive: 14.1 µM [inhibitor, single point]"}, {"smiles": "Brc1ccc(-c2csc(NC3=NCCCCC3)n2)cc1", "Potency": "inactive"}, {"smiles": "COc1cccc(/C=N\\NC(=O)Cn2nnc3ccccc32)c1O", "Potency": "inconclusive: 3.16 µM [inhibitor, full curve, poor fit]"}, {"smiles": "Cc1cccc(NC(=O)c2cnn(-c3ccccc3)c2-n2cccc2)c1C", "Potency": "inactive"}, {"smiles": "CCOc1ccc(C(=O)CCc2nc3ccccc3s2)cc1", "Potency": "inactive"}, {"smiles": "COc1ccc(-c2cc(C(F)(F)F)nc(SCC(=O)N3CCOCC3)n2)cc1OC", "Potency": "inactive"}, {"smiles": "O=C(Cn1c(=O)n(-c2cccc(C(F)(F)F)c2)c(=O)c2sccc21)NCC1CCCO1", "note": "(centres undefined)", "Potency": "inconclusive: 35.5 µM [inhibitor, single point]"}, {"smiles": "Nc1cc(=O)[nH]c(SCC(=O)Nc2ccccc2Sc2ccc(Cl)cc2)n1", "Potency": "inactive"}, {"smiles": "CCCCN(C(=O)c1cc(S(=O)(=O)N2CCOCC2)ccc1F)c1c(N)n(CCCC)c(=O)[nH]c1=O", "Potency": "inconclusive: 3.16 µM [activator, full curve, poor fit]"}, {"smiles": "CCOC(=O)c1cn(CC(=O)Nc2ccc(C(C)C)cc2)nn1", "Potency": "inactive"}, {"smiles": "CCOC(=O)c1c(NC(=O)c2noc3c2CC(C(C)(C)C)CC3)sc2c1CCCC2", "note": "(centres undefined)", "Potency": "inactive"}]}]}
